{"sequences": {"note": "Sequences of proteins named here, by UniProt entry; tags and fusion partners are left off. Residues count along the entry.", "UniProt P23385, 19-1199": "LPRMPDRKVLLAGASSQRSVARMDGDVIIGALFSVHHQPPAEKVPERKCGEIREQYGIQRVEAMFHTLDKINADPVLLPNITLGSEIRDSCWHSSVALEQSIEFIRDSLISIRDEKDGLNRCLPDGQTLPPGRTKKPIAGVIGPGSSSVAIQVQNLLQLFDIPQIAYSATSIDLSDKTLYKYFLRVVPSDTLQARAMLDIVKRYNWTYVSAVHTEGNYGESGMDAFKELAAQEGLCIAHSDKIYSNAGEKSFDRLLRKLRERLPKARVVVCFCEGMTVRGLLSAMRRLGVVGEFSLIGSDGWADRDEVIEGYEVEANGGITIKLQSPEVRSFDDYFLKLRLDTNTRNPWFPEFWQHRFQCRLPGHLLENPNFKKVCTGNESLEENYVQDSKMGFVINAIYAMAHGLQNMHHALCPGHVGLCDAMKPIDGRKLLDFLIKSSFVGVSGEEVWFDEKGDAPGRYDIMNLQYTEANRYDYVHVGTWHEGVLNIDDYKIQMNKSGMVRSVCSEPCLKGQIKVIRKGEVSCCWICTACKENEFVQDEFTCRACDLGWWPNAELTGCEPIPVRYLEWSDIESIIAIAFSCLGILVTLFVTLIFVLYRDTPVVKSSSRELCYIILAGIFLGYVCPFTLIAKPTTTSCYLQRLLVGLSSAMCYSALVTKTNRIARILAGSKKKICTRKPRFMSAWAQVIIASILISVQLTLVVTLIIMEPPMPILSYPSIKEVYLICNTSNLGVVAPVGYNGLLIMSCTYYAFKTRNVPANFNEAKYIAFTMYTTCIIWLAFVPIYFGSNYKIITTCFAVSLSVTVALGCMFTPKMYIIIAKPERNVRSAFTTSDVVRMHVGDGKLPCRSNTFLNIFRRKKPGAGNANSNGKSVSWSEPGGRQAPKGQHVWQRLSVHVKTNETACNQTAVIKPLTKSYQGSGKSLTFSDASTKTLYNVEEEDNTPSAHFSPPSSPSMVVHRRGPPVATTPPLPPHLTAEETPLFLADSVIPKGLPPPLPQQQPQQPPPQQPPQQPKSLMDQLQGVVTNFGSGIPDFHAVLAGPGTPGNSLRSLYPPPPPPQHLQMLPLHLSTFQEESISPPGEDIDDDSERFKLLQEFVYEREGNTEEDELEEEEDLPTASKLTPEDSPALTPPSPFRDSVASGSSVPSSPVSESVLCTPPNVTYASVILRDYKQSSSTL"}, "source": "patent US6462198B1", "about": "“Carbamic acid derivatives” (Hoffmann-La Roche Inc., priority 1999, dated 2002)", "target": "T1, rat mGlu 1a receptor (Rattus norvegicus, UniProt P23385)", "T1 construct": "expressed in transfected cells; host or cells: EBNA cells (transient transfection)", "assay": "[Ca2+]i measurement (FLIPR) on mGlu 1a transfected EBNA cells", "assay_type": "cell-based", "conditions": "mode of action at group I mGlu receptor, [Ca2+]i FLIPR assay", "note": "For at least one compound, name, drawing or mass did not settle the structure."}
{"smiles": "C=CCOC(=O)NC(=O)C(C)(c1ccccc1)c1ccccc1", "note": "[Example 24, (2,2-Diphenyl-propionyl)-carbamic acid allyl ester]", "values": [{"measurement": "agonist/antagonist", "value": "antagonist"}]}
